# The supplement of paper PMC3334620
# The full ranking holds about 33,000 sequences; the median of “E-score (-0.5 to 0.5)” is about -0.0034, and the highest 2% start at about 0.25. The list shows a part of the results.
# Target: T1, Yap3 (UniProt P38749)
# T1 sequence: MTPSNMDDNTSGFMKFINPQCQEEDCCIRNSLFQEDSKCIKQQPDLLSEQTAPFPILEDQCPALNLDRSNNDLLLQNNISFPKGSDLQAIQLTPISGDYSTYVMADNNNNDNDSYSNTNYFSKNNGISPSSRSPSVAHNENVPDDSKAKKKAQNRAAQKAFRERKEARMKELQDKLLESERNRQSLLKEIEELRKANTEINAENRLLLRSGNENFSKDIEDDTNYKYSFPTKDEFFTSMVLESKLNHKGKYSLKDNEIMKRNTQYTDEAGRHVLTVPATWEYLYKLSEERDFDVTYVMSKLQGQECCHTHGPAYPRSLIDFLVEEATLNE
# Test: PBM E-score (8-mer binding enrichment) (E-score (-0.5 to 0.5)); higher = stronger / more preferred TF binding
# Conditions: protein concentration: 100 nM; construct: GST-full length
# Method in brief: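 Yeast transcription factors carrying a GST tag, as full-length proteins or DNA-binding domains, were produced by PURExpress in vitro transcription/translation. About 100-200 nM protein was applied to universal all-10-mer Agilent arrays, double-stranded by primer extension on fresh or once-stripped slides. Bound protein was detected with fluorescent anti-GST, and scans were normalised with masliner. The Universal PBM Analysis Suite gave each ungapped eight-base word, pooled with its reverse complement, an E-score, a modified Wilcoxon-Mann-Whitney statistic.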
row,Sequence,PBM E-score
1,GGTGACTA,-0.00115
2,ACGGCTAG,-0.141
3,CGGCCAGA,-0.0173
4,ACTGTATG,0.0595
5,TGCGAGCA,0.0642
6,CAATATAA,0.307
7,CGTACGGC,-0.0609
8,ATATAACG,0.237
9,GGGATCCA,-0.0652
10,CACGTCAC,0.0561
11,CGTGTAGA,-0.00178
12,AAGAGTCG,0.141
13,AGGTGACG,-0.109
14,CCCGAGAA,0.0338
15,ATACCCAG,-0.0813
16,ATTGAACA,0.0824
17,ATTGTCGC,0.0675
18,ATATGAGG,0.0877
19,CGCAGCGA,-0.0766
20,CGCGCGTC,0.169
21,CGCAGGCC,-0.0949
22,AAGCAGTG,-0.0579
23,CGAAGCCC,-0.178
24,GGCCACAA,-0.062
25,GAAACGGA,0.17

# Quoted at random: six records from the list, in no set order.
row,Sequence,PBM E-score
12,AAGAGTCG,0.141
3,CGGCCAGA,-0.0173
11,CGTGTAGA,-0.00178
15,ATACCCAG,-0.0813
8,ATATAACG,0.237
25,GAAACGGA,0.17

# Additional entries follow.

row,Sequence,PBM E-score
1,CGGCTAAG,-0.103
2,AAAGCTAG,-0.0378
3,CTCGAGGC,-0.0169
4,GGGTCCCA,-0.199
5,CCGGCACG,-0.163
6,CCCCGCAG,-0.202
7,CCTCTATA,-0.0402
8,ACGAAAAA,0.0676
9,AATGTCGA,0.183
10,GGAAGAAC,0.126
11,CGTTCGAG,-0.0172
12,ACCACGGC,-0.116
13,CGACGACA,-0.011
14,AGGAGTCA,0.00727
15,TCTGTTCA,0.0596
16,CTATAGGA,-0.0851
17,ATCCTCCA,-0.03
18,ACGACTAC,-0.0945
19,GCTGTGAC,-0.0962
20,CGATTGAG,0.0236
21,ACTATGAG,0.0203
22,GAATTATA,0.237
23,CTACTACA,0.225
24,ACACCCCA,-0.0392
25,CAACAGTG,0.0952

row,Sequence,PBM E-score
1,AAATGCGA,0.101
2,CGGGCTTC,-0.252
3,ACAGGAAC,0.12
4,TTCATAAA,0.0945
5,GGCGACGA,-0.153
6,CCGCCTCG,0.0846
7,ACCCACGG,-0.306
8,AGGTTGTA,0.163
9,ACGTGGCA,-0.251
10,ACACTACG,0.014
11,CAATTGTC,0.225
12,AGTGTCGA,-0.0703
13,ATCTCGGA,0.0763
14,GACTTATA,0.196
15,GCATTGTA,-0.0355
16,CCGTGCCA,-0.172
17,CACGAAAC,0.00245
18,GGCAAAAC,-0.0314
19,TCATCCGA,0.117
20,CCTCCAAC,0.111
21,CACAGAAG,-0.0867
22,ACGATATA,0.131
23,ACATGCTC,-0.0428
24,TAATGGGA,-0.0698
25,ATATAAGC,0.0573

row,Sequence,PBM E-score
1,CCGACGCG,-0.0691
2,TAGCAGCA,0.00637
3,ATAAAAGG,-0.011
4,GAAATTTA,0.161
5,AGTCCAAG,-0.145
6,TCTATTAA,0.188
7,GGAAAGAC,-0.0223
8,GCAATACC,0.0796
9,CCTAAGCG,-0.033
10,GCTGGTGA,0.0756
11,GCGACCTA,-0.0637
12,AGGACAAC,0.0469
13,ATTACAGG,0.268
14,ATGACAGA,0.137
15,GTTAGCCA,0.0109
16,AACTACGT,0.0416
17,ACATATAA,0.29
18,CTTGCGGA,-0.11
19,ATGTGTGC,-0.0436
20,CATAACGA,0.127
21,TAGTGCAA,0.159
22,CGCAATAA,0.191
23,GGACCGAA,0.0935
24,ACGGCCGT,-0.214
25,AAGGGAAC,-0.158

row,Sequence,PBM E-score
1,ACGTAACA,0.248
2,ATCTAAGA,0.0257
3,CAAATCGC,-0.167
4,GAGGGACC,-0.265
5,CTTAAGTC,-0.0806
6,ACGCTCGG,-0.0164
7,AACGCCCT,-0.0326
8,CGGAGGAG,-0.0814
9,CAACAGCG,-0.135
10,AGCGACAT,0.0382
11,CCGAACCG,-0.188
12,ATTATACA,0.195
13,CAAGGAGA,-0.185
14,AAAACGAT,0.167
15,AGTTGGTC,-0.09
16,ATTCGAAA,0.241
17,GCCGGCAC,0.00572
18,GGATGCAC,-0.192
19,GGGGCCAC,-0.331
20,ACAGAAAG,0.129
21,CAGGTCCC,-0.281
22,AGCACATG,0.05
23,GTATAGTA,0.143
24,ATATGCAT,0.0271
25,CTCAAAGA,-0.0998

# Already shown: an excerpt of the list.
row,Sequence,PBM E-score
19,GGGGCCAC,-0.331
20,ACAGAAAG,0.129
21,CAGGTCCC,-0.281
22,AGCACATG,0.05

# Next part:

row,Sequence,PBM E-score
1,AGAGTGTC,0.195
2,TATCAACA,0.123
3,CGCGCCCA,-0.0446
4,TAACTTAA,0.201
5,GCAGTCGA,-0.0533
6,ACGGCTAA,0.168
7,ACCTTTAC,0.0118
8,GGCGGTGA,0.132
9,CACGAGTG,-0.108
10,GAAATAAC,0.151
11,GAGACAAA,0.00669
12,CTTAATAA,0.275
13,AACAGTGC,0.00374
14,ACCCTCCG,-0.282
15,CGTATTGA,0.166
16,AAGAATGC,0.0376
17,ACCGGACG,0.075
18,CTGGTAGC,-0.158
19,CATAGTCG,-0.00295
20,CGTCAAAA,0.163
21,ATATGGAA,0.0953
22,AGCGCTTG,-0.011
23,GTGGTAAC,0.058
24,GTCGTCAA,0.0673
25,CGATTGGA,-0.0117

row,Sequence,PBM E-score
1,GAATATAC,0.181
2,AATCTCGT,0.0764
3,CCTCACAA,-0.0501
4,TAAAAATA,0.26
5,ATGAAGTA,0.101
6,AGTTCAGC,-0.221
7,ACTATAAA,0.237
8,GGGCACTA,-0.128
9,ATATCTTG,0.085
10,AATCGACG,-0.0671
11,AACAACAG,-0.0946
12,CAAGGACA,0.0322
13,GCATGGAA,0.06
14,AATGTATA,0.232
15,CAGCGTTC,-0.113
16,AGCGTCTA,-0.219
17,GTCCGTCA,0.0134
18,ACACCGAA,0.0282
19,AGAAACCT,0.0913
20,ACGTGACA,-0.0599
21,ACTGGACA,-0.0546
22,GACCGAGC,-0.154
23,ACTACTCT,0.0451
24,CATGTACG,0.224
25,ACTCAATA,0.211

row,Sequence,PBM E-score
1,GAATCGAA,0.223
2,AAAATGGA,0.309
3,CAGTCAGC,-0.0873
4,CTTCAAAA,0.0514
5,ATAGTATA,0.103
6,AATCGTAC,0.142
7,AATAGGAC,0.223
8,GCTTTATA,0.0704
9,GACCGACA,0.00482
10,GCAATAAC,0.109
11,AGTGTCAC,-0.0511
12,AACACTAT,0.207
13,GGATGACC,-0.0617
14,CCGTGCAA,-0.113
15,AGAGTAAG,0.053
16,ATGAAACA,0.0614
17,AGCAGCAC,-0.185
18,TACAACTA,-0.028
19,GACCAGCC,-0.0967
20,CTGCTGAA,-0.115
21,AGGGGTCG,-0.224
22,CTGTCGTC,0.0563
23,CCATTGCG,-0.0651
24,CCCTATGA,-0.0708
25,CTCATTAA,0.0548

row,Sequence,PBM E-score
1,TCATTGGA,-0.00954
2,GAACCATA,0.176
3,CCTTGAAA,0.029
4,ATGCGGTG,-0.206
5,AAGGCACT,-0.182
6,TGAGACAA,0.0572
7,TGAGTACA,0.0906
8,ATAAGCAA,0.137
9,ATTGCACG,0.124
10,CTCCCTGC,-0.275
11,GAGGACGA,0.0728
12,ACACCTCG,0.0513
13,GCAGGAAA,0.146
14,TGATGAAA,0.0286
15,GTGCGAGA,0.0126
16,CGGTCGAG,-0.145
17,CTCTCTCC,-0.293
18,CTCAGTTA,-0.0635
19,CCGGTAGC,-0.198
